Measured values as given in patent US20200385459A1 (University of Texas, published 2020).
Where a chain is given by its changes, count along the chain named. Results are given in words; binding and its absence hold for the method and conditions named. Some results given as binding are weak or reduced against the parent protein; the word gives no strength. Tags and fused reporters may be left off the sequences shown.

T1: His-tagged recombinant human LRP10 protein, LRP10-516H (human) (UniProt Q7Z4F1)
T1 sequence (looked up): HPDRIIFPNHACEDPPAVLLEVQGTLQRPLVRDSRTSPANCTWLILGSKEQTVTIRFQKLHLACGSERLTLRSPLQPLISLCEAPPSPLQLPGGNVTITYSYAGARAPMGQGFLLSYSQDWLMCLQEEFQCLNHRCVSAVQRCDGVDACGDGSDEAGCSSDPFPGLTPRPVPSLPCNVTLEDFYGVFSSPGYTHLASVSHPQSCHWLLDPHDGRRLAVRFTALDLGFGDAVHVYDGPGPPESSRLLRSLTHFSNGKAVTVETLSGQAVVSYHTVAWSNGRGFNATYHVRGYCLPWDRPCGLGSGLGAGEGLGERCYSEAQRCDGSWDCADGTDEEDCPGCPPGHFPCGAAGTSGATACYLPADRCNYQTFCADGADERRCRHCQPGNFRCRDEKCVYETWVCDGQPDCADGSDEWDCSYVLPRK

B1: Clone 1 (AB1) (antibody, V domains shown)
VH: EVQLLESGGGLVQPGGSLRLSCAASGFTFSSQAMSWVRQAPGKGLEWVSSIPPGGPNTKYADSVKGRFTISRDNSKNTLYLQMNSLRAEDTAVYYCAKSYPSFDYWGQGTLVTVSS
VL: DIQMTQSPSSLSASVGDRVTITCRASQSISSYLNWYQQKPGKAPKLLIYNASDLQSGVPSRFSGSGSGTDFTLTISSLQPEDFATYYCQQSSRTPTTFGQGTKVEIK
notes: also called AB1 (L1 + H1); AB1: L1 + H1
B2: Clone 3 (AB3) (antibody, human IgG1, V domains shown)
VH: EVQLLESGGGLVQPGGSLRLSCAASGFTFSSYAMSWVRQAPGKGLEWVSQIGTMGRPTTYADSVKGRFTISRDNSKNTLYLQMNSLRAEDTAVYYCAKSGKKFDYWGQGTLVTVSS
VL: B1 VL with N50R, D53R, S91P, S92T, R93S, T94L, T96L
notes: Expressed as a full antibody in 293F cells, protein A purified; also called AB3 (L3 + H2); AB3: L3 + H2
B3: Clone 7 (AB7) (antibody, human IgG1, V domains shown)
VH: B2 VH with Q50S, G52A, M54T, R56N, P57T, T59Y, S99N, G100T, K101A, K102T
VL: B1 VL with N50A, D53T, S91N, S92D, R93Y, T94Y
notes: Expressed as a full antibody in 293F cells, protein A purified; also called AB7 (L7 + H6); AB7: L7 + H6
B4: Clone 8 (AB8) (antibody, human IgG1, V domains shown)
VH: B1 VH with P14L
VL: B1 VL
notes: Expressed as a full antibody in 293F cells, protein A purified; also called AB8 (L1 + H7); AB (L1 + H7)
B5: Clone 2 (AB2) (antibody, human IgG1, V domains shown)
VH: B1 VH
VL: B1 VL with N50A, D53P, S91V, S92A, T96N
notes: Expressed as a full antibody in 293F cells, protein A purified; also called AB2 (L2 + H1); AB2: L2 + H1

The binders below were run against T1, His-tagged recombinant human LRP10 protein, LRP10-516H (human) (assay: ELISA on coated LRP10).

binding	Binder
binds	B1
binds	B2
binds	B3
binds	B4
binds	B5
